Reference: the supplement of paper PMC10849652
The other results are listed elsewhere or left out.

By UniProt entry, the sequences of proteins in these tests, tags left out. Where a name states a change or a piece, a line headed by the entry shows the natural chain unless it says otherwise.
UniProt O43818: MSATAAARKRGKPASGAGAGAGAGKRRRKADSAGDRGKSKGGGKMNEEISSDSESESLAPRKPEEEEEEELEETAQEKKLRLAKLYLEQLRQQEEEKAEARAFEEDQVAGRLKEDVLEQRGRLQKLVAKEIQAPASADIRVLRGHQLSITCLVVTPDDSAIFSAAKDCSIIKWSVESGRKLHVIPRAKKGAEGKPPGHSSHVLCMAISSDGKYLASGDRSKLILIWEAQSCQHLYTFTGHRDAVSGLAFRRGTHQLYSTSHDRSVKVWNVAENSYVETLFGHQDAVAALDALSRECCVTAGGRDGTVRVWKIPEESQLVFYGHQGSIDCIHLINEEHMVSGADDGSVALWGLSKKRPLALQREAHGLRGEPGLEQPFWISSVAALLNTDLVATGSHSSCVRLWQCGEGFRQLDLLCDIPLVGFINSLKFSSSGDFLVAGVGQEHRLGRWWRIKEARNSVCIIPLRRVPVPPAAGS
UniProt O15126: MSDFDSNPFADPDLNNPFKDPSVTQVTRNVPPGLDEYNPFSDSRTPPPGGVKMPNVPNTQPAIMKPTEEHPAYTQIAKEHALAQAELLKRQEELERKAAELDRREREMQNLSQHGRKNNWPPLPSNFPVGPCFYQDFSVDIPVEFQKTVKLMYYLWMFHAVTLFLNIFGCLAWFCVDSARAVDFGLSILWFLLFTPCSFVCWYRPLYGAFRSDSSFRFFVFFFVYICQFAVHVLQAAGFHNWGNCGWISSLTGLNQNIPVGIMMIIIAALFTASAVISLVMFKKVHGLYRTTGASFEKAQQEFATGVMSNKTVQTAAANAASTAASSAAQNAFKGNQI
UniProt P55735: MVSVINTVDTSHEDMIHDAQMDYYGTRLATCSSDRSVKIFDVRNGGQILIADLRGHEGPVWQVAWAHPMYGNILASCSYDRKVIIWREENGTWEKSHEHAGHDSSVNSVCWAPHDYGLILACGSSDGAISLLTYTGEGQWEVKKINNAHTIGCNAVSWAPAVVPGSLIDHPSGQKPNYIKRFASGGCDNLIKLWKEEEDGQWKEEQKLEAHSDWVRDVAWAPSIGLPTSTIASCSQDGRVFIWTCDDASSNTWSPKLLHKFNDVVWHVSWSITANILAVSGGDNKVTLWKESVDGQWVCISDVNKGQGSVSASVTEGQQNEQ
UniProt P25815: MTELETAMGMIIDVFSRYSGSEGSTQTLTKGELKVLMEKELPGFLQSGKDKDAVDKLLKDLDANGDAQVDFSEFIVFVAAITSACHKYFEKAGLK
UniProt Q9BRK5: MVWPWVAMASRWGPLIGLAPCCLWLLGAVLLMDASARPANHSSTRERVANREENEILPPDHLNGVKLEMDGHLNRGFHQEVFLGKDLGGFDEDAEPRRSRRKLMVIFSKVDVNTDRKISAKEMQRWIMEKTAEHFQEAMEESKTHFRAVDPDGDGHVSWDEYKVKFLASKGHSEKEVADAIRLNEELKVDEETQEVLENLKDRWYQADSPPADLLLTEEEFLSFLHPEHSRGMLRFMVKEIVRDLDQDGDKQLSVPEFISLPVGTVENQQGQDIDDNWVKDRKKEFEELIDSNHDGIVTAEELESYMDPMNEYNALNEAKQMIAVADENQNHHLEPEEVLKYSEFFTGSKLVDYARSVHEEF
UniProt P67812: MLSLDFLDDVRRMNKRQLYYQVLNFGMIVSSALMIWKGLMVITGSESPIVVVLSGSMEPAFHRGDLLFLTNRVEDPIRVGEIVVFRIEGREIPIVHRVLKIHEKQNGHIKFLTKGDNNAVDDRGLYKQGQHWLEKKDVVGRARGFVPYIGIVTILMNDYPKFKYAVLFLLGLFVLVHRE
UniProt O75396: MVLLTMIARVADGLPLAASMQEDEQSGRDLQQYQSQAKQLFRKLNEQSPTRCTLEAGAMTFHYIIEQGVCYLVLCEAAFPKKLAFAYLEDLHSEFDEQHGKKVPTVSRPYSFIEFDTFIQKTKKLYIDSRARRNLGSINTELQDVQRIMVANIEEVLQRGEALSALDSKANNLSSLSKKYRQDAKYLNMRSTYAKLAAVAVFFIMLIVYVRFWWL
UniProt Q8NBX0: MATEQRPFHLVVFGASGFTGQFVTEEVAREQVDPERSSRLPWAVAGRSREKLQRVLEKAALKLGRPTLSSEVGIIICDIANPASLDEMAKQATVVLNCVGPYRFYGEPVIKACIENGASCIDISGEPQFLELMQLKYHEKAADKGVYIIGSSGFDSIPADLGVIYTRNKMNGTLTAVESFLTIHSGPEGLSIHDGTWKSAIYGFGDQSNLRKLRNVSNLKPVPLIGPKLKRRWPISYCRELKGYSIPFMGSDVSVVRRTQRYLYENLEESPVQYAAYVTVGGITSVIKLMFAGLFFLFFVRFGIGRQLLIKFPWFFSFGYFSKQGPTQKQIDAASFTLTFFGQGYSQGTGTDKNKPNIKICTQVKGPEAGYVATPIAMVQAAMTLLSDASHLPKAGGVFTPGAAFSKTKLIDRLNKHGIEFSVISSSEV
UniProt Q0VDG4: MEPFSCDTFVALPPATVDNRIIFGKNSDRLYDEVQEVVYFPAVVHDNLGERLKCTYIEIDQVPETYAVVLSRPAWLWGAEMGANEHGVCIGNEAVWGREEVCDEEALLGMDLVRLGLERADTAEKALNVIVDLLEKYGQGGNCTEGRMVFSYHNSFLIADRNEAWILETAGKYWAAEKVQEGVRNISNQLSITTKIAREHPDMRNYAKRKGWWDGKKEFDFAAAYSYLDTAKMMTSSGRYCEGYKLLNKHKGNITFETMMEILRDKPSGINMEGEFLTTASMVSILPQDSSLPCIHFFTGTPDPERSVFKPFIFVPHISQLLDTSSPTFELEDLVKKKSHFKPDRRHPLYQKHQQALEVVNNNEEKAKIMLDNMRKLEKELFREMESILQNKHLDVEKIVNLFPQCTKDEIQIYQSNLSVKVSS
UniProt P82979: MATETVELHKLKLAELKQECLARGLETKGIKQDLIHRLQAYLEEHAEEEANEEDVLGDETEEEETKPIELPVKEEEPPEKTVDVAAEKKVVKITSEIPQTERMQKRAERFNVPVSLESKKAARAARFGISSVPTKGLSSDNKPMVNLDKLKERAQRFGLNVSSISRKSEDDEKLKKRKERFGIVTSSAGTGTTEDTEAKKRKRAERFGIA
UniProt Q14151: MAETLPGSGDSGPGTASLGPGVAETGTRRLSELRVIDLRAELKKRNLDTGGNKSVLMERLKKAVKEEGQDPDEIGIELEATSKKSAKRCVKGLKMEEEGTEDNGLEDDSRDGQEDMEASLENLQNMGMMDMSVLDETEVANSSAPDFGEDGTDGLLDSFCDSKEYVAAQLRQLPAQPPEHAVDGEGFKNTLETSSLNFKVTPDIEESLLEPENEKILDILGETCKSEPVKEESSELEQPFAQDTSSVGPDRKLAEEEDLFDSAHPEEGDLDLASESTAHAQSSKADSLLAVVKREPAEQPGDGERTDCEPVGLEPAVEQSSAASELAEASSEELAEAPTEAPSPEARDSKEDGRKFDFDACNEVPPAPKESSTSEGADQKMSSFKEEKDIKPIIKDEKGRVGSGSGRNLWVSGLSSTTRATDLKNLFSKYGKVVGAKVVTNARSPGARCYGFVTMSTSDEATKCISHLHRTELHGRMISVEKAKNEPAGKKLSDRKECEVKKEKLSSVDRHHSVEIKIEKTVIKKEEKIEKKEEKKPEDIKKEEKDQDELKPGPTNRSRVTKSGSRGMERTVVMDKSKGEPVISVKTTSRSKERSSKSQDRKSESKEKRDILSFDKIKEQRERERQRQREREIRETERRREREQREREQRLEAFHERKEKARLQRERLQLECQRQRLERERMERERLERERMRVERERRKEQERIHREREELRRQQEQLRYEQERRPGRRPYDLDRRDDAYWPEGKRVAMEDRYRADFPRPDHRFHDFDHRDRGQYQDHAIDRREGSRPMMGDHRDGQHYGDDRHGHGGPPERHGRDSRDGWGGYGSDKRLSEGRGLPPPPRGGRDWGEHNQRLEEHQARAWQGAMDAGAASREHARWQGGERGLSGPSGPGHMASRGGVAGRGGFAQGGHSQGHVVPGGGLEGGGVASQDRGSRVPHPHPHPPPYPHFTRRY
UniProt Q9HCN8: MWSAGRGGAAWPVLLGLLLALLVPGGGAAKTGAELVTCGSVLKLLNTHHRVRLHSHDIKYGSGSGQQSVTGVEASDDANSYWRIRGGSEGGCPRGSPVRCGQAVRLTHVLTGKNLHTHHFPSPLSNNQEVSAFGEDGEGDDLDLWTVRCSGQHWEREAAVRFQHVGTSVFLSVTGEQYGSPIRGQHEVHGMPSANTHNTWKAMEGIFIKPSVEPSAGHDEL
UniProt Q9Y265, whole entry, looked up: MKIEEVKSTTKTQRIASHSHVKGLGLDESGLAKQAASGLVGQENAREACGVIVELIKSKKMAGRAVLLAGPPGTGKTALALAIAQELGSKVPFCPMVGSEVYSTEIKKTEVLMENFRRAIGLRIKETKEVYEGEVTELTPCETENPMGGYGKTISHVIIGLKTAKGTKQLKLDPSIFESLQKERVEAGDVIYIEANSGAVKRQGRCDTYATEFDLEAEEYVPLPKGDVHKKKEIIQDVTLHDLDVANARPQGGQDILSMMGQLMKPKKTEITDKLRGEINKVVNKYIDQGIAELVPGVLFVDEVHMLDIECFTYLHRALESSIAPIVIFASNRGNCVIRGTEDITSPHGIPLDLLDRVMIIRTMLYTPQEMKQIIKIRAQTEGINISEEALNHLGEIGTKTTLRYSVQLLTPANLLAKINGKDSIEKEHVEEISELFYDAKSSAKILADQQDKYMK
UniProt O00442: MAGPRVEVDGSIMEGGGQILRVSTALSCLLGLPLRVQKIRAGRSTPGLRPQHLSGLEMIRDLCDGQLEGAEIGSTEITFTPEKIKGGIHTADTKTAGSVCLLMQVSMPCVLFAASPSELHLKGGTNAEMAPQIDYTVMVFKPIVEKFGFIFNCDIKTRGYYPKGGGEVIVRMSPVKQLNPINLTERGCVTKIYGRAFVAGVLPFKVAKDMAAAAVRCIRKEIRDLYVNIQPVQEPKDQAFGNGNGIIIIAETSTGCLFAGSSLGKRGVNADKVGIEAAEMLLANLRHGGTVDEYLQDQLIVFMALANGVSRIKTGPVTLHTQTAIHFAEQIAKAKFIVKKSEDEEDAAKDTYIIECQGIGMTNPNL
UniProt Q15436: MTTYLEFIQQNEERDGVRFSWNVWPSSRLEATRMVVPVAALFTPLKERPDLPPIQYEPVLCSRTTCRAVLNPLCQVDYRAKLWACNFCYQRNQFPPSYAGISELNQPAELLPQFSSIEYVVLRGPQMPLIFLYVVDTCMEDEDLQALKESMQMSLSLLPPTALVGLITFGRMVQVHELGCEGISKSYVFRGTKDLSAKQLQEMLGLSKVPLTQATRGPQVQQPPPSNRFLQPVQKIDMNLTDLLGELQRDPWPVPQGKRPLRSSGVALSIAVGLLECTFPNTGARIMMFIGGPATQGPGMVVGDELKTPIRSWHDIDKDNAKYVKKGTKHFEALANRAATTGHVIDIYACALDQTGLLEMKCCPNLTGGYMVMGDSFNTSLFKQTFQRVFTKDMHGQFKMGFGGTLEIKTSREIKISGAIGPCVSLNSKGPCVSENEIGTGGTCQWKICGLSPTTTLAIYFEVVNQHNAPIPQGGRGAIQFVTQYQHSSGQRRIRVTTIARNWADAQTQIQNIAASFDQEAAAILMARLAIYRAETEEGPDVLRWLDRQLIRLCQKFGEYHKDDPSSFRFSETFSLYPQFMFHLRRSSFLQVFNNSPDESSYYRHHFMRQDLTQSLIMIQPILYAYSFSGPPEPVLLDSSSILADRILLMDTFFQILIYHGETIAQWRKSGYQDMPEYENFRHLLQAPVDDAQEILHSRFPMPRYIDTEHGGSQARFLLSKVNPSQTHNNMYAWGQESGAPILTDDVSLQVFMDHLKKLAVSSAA

Key:
Assay in all cases: log2 fold change, soluble protein after heating vs DMSO (PISA); higher = thermal stabilisation; K562 cells, 10 uM, 30 min; active = over 0.2 and 3.5 SD of the protein, either way, in both replicates (recomputed)
bafetinib = compound: Cc1ccc(NC(=O)c2ccc(CN3CC[C@H](N(C)C)C3)c(C(F)(F)F)c2)cc1Nc1nccc(-c2cncnc2)n1 [bafetinib]
Outline: (§1)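 K562 cells at 2×10^6 cells/mL were treated for 30 min with 10 μM compound, and aliquots were heated for 3 min over 48°C-58°C before pooling. Extraction used PBS with 0.5% NP-40 at 4°C, and soluble protein was the supernatant after 21,000xg for 90 min, measured by TMTpro 16plex LC-MS/MS with channel sums equalised. Thermal stability values, relative to control samples and from duplicates, are log2 fold changes.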

[1] = compound: Cc1cccc(CC(=O)N2CCc3c2ccc(-c2cn(C)c4ncnc(N)c24)c3F)n1
Outline: as §1

nilotinib = compound: Cc1cn(-c2cc(NC(=O)c3ccc(C)c(Nc4nccc(-c5cccnc5)n4)c3)cc(C(F)(F)F)c2)cn1 [nilotinib]
Outline: as §1

[2] = compound: Cc1nc(Nc2n[nH]c3c2CN(C(=O)N[C@H](CN(C)C)c2ccccc2)C3(C)C)c2sccc2n1
Outline: as §1

dasatinib = compound: Cc1nc(Nc2ncc(C(=O)Nc3c(C)cccc3Cl)s2)cc(N2CCN(CCO)CC2)n1 [dasatinib]
Outline: as §1

[3] = compound: Cc1ncc(-c2ccnc(Nc3ccc(S(C)(=O)=O)cc3)n2)n1C(C)C
Outline: as §1

[4] = compound: Cn1cc(-c2ccc3c(c2)CCN3C(=O)Cc2cccc(C(F)(F)F)c2)c2c(N)ncnc21
Outline: as §1

[5] = compound: Cn1cc(-c2ccc3nnc(C(F)(F)c4ccc5ncccc5c4)n3n2)cn1
Outline: as §1

tipifarnib = compound: Cn1cncc1[C@@](N)(c1ccc(Cl)cc1)c1ccc2c(c1)c(-c1cccc(Cl)c1)cc(=O)n2C [tipifarnib]
Outline: as §1

mubritinib = compound: FC(F)(F)c1ccc(/C=C/c2nc(COc3ccc(CCCCn4ccnn4)cc3)co2)cc1 [mubritinib]
Outline: as §1

[6] = compound: NC(=O)Nc1cc(-c2cccc(F)c2)sc1C(=O)N[C@H]1CCCNC1
Outline: as §1

[7] = compound: NC(=O)c1cnc(N[C@@H]2CCCC[C@@H]2N)nc1Nc1cccc(-n2nccn2)c1
Outline: as §1

[8] = compound: NC1(c2ccc(-c3nc4ccn5c(=O)[nH]nc5c4cc3-c3ccccc3)cc2)CCC1
Outline: as §1

[9] = compound: NCC(=O)Nc1ccc(-n2nc(C(F)(F)F)cc2-c2ccc3c(ccc4ccccc43)c2)cc1
Outline: as §1

entinostat = compound: Nc1ccccc1NC(=O)c1ccc(CNC(=O)OCc2cccnc2)cc1 [entinostat]
Outline: as §1

vorinostat = compound: O=C(CCCCCCC(=O)Nc1ccccc1)NO [vorinostat]
Outline: as §1

citarinostat = compound: O=C(CCCCCCNC(=O)c1cnc(N(c2ccccc2)c2ccccc2Cl)nc1)NO [citarinostat]
Outline: as §1

silmitasertib = compound: O=C(O)c1ccc2c(c1)nc(Nc1cccc(Cl)c1)c1ccncc12 [silmitasertib]
Outline: as §1

[10] = compound: O=C1NC(=O)C(c2cnc3ccccn23)=C1c1cn2c3c(cc(F)cc13)CN(C(=O)N1CCCCC1)CC2
Outline: as §1

[11] = compound: c1cc(OCCN2CCCCC2)cc(-c2n[nH]c3ccc(-c4nnc[nH]4)cc23)c1
Outline: as §1

Target	log2 fold change (bafetinib)	log2 fold change [1]	log2 fold change (nilotinib)	log2 fold change [2]	log2 fold change (dasatinib)	log2 fold change [3]	log2 fold change [4]	log2 fold change [5]	log2 fold change (tipifarnib)	log2 fold change (mubritinib)	log2 fold change [6]	log2 fold change [7]	log2 fold change [8]	log2 fold change [9]	log2 fold change (entinostat)	log2 fold change (vorinostat)	log2 fold change (citarinostat)	log2 fold change (silmitasertib)	log2 fold change [10]	log2 fold change [11]
RRP9 (UniProt O43818)	inactive: -0.02	inactive: -0.103	inactive: 0.046	inactive: -0.042	inactive: 0.106	inactive: -0.107	inactive: -0.062	inactive: -0.102	inactive: 0.074	inactive: -0.046	inactive: 0	inactive: 0.053	inactive: 0.14	inactive: 0.08	inactive: -0.002	inactive: -0.035	inactive: 0.003	inactive: 0.069	inactive: 0.112	inactive: -0.073
SEC16A isoform 5 (UniProt O15027)	inactive: 0.023	inactive: 0.096	inactive: 0.017	inactive: -0.048	inactive: -0.169	inactive: 0.021	inactive: -0.006	inactive: -0.051	inactive: 0.012	inactive: -0.081	inactive: 0.006	inactive: -0.072	inactive: -0.14	inactive: 0.055	inactive: 0.071	inactive: 0.154	inactive: 0.071	inactive: -0.007	inactive: 0.191	inactive: -0.022
SCAMP1 (UniProt O15126)	inactive: -0.085	inactive: -0.041	inactive: -0.02	inactive: 0.003	inactive: 0.027	inactive: 0.031	inactive: 0.025	inactive: 0.034	inactive: 0.065	inactive: 0.007	inactive: -0.032	inactive: -0.013	inactive: -0.022	inactive: -0.065	inactive: -0.037	inactive: 0.005	inactive: -0.016	inactive: 0.038	inactive: -0.056	inactive: -0.051
SEC13 isoform 3 (UniProt P55735)	inactive: -0.029	inactive: 0.045	inactive: -0.036	inactive: -0.019	inactive: -0.007	inactive: -0.02	inactive: -0.035	inactive: 0.027	inactive: -0.079	inactive: 0.049	inactive: -0.065	inactive: -0.047	inactive: -0.06	inactive: -0.019	inactive: -0.007	inactive: 0.024	inactive: 0.002	inactive: 0.115	inactive: -0.051	inactive: -0.105
S100P (UniProt P25815)	inactive: -0.1	inactive: -0.068	inactive: 0.034	inactive: 0.045	inactive: 0.046	inactive: -0.006	inactive: 0.182	inactive: 0.377	inactive: -0.059	inactive: 0.003	inactive: 0.144	inactive: 0.029	inactive: 0.025	inactive: 0.028	inactive: 0.125	inactive: -0.163	inactive: -0.046	inactive: -0.055	inactive: -0.208	inactive: 0.004
SDF4 (UniProt Q9BRK5)	inactive: -0.052	inactive: 0.006	inactive: -0.031	inactive: -0.001	inactive: 0.08	inactive: 0.045	inactive: -0.019	inactive: 0.02	inactive: -0.015	inactive: -0.031	inactive: 0.022	inactive: 0.05	inactive: 0.024	inactive: 0.056	inactive: -0.026	inactive: -0.025	inactive: 0.01	inactive: -0.002	inactive: -0.005	inactive: -0.013
SEC11A isoform 3 (UniProt P67812)	inactive: -0.058	inactive: 0.024	inactive: 0.003	inactive: -0.011	inactive: -0.003	inactive: 0.006	inactive: -0.033	inactive: 0.027	inactive: 0.022	inactive: -0.016	inactive: 0	inactive: -0.051	inactive: -0.074	inactive: -0.058	inactive: -0.004	inactive: 0	inactive: 0.033	inactive: 0	inactive: -0.028	inactive: -0.046
SEC22B (UniProt O75396)	inactive: -0.003	inactive: 0.047	inactive: -0.016	inactive: -0.004	inactive: -0.021	inactive: 0.008	inactive: 0.049	inactive: -0.007	inactive: -0.021	inactive: 0.025	inactive: 0.071	inactive: 0.031	inactive: -0.027	inactive: -0.02	inactive: 0.022	inactive: 0.013	inactive: 0.048	inactive: -0.037	inactive: -0.054	inactive: 0.018
SCCPDH (UniProt Q8NBX0)	inactive: 0.161	inactive: -0.046	inactive: 0.189	inactive: 0.019	inactive: 0.008	inactive: 0.174	inactive: 0.273	inactive: -0.074	active: 0.419	inactive: 0.104	inactive: -0.113	inactive: -0.056	inactive: 0.045	inactive: -0.024	inactive: -0.071	inactive: 0.062	inactive: 0.199	inactive: -0.004	inactive: 0.123	inactive: 0.33
SCRN3 (UniProt Q0VDG4)	inactive: -0.047	inactive: 0.066	inactive: 0.004	inactive: -0.05	inactive: -0.011	inactive: -0.03	inactive: -0.003	inactive: 0.021	inactive: 0.024	inactive: 0.062	inactive: 0.009	inactive: 0.004	inactive: -0.098	inactive: -0.015	inactive: 0.004	inactive: 0.017	inactive: -0.003	inactive: 0.011	inactive: 0.008	inactive: 0.034
SARNP (UniProt P82979)	inactive: -0.051	inactive: -0.155	inactive: 0.034	inactive: 0.09	inactive: 0.121	inactive: 0.011	inactive: -0.074	inactive: -0.019	inactive: 0.049	inactive: 0.066	inactive: 0.004	inactive: -0.111	inactive: 0.122	inactive: -0.076	inactive: -0.083	inactive: -0.137	inactive: -0.1	inactive: 0	inactive: -0.039	inactive: -0.023
SAFB2 (UniProt Q14151)	inactive: 0.17	inactive: -0.018	inactive: -0.016	inactive: 0.117	inactive: 0.183	inactive: -0.054	inactive: -0.135	inactive: -0.058	inactive: 0.085	inactive: -0.077	inactive: 0.116	inactive: 0.084	inactive: 0.255	inactive: 0.043	inactive: -0.076	inactive: -0.016	inactive: -0.098	inactive: 0.119	inactive: 0.084	inactive: -0.038
SDF2L1 (UniProt Q9HCN8)	inactive: 0.014	inactive: 0.008	inactive: 0.033	inactive: 0.023	inactive: 0.024	inactive: -0.048	inactive: -0.069	inactive: 0.018	inactive: 0.022	inactive: -0.061	inactive: -0.025	inactive: -0.066	inactive: 0.002	inactive: 0.013	inactive: -0.007	inactive: 0.028	inactive: -0.007	inactive: 0.041	inactive: -0.003	inactive: -0.08
RUVBL1 (UniProt Q9Y265)	inactive: 0.074	inactive: -0.063	inactive: 0.112	inactive: 0.104	inactive: 0.039	inactive: 0.006	inactive: -0.003	inactive: -0.009	inactive: 0.017	inactive: -0.004	inactive: 0.004	inactive: 0.008	inactive: 0.036	inactive: 0.028	inactive: -0.06	inactive: -0.069	inactive: -0.024	inactive: -0.035	inactive: 0.022	inactive: -0.007
RTCA (UniProt O00442)	inactive: -0.062	inactive: -0.041	inactive: 0.039	inactive: 0.016	inactive: -0.054	inactive: 0	inactive: 0.046	inactive: -0.001	inactive: -0.025	inactive: -0.036	inactive: 0.021	inactive: 0	inactive: -0.111	inactive: 0.02	inactive: 0.067	inactive: 0.035	inactive: 0.044	inactive: 0.011	inactive: -0.046	inactive: -0.014
SEC23A (UniProt Q15436)	inactive: -0.011	inactive: 0.024	inactive: -0.012	inactive: 0.014	inactive: -0.07	inactive: -0.009	inactive: -0.018	inactive: -0.052	inactive: -0.013	inactive: -0.002	inactive: -0.004	inactive: 0.064	inactive: -0.066	inactive: -0.015	inactive: -0.035	inactive: -0.02	inactive: -0.044	inactive: 0.011	inactive: 0.024	inactive: -0.097

Looked up above:
In log2 fold change (dasatinib), SCRN3 (UniProt Q0VDG4) has the entry inactive: -0.011
In log2 fold change [3], SEC16A isoform 5 (UniProt O15027) has the entry inactive: 0.021
